Test [1] deals with T1, JCV large T-antigen (T-Ag), constitutively produced in BSB8 cells (JC virus (JCV)) (UniProt P03072).
T1 sequence: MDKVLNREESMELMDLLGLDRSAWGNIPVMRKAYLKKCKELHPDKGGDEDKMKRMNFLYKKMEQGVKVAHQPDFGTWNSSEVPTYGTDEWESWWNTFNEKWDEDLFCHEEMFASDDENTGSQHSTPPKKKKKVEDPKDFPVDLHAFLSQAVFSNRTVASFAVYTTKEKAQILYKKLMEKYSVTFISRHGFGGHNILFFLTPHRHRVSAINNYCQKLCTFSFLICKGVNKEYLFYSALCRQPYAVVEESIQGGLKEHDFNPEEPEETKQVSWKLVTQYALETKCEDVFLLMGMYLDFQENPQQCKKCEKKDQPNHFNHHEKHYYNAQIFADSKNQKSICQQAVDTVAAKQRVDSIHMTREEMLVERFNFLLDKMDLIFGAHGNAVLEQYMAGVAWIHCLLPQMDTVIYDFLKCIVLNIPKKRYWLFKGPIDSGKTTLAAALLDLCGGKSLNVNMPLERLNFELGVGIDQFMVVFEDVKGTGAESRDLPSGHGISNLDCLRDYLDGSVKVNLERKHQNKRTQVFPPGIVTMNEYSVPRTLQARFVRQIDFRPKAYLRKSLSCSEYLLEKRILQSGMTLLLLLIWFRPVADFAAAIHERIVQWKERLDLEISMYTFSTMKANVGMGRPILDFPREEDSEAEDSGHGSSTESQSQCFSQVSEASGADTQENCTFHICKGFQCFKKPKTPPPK
Kind of test: co-IP; large T-Ag immunoprecipitated with a monoclonal antibody (0.4 µg/IP) from BSB8 whole cell extracts, protein A/G beads, 1% NP-40-TNN buffer (150 mM NaCl, 40 mM Tris-HCl pH 7.4, 1 mM DTT, 1 mM EDTA), overnight 4°C; Western blot with anti-Bag3. For orientation: In western blotting, separated proteins are transferred to a membrane and probed.

Protein sequences, listed by entry. Tags and fused reporters are not part of them.
UniProt Q9JLV1: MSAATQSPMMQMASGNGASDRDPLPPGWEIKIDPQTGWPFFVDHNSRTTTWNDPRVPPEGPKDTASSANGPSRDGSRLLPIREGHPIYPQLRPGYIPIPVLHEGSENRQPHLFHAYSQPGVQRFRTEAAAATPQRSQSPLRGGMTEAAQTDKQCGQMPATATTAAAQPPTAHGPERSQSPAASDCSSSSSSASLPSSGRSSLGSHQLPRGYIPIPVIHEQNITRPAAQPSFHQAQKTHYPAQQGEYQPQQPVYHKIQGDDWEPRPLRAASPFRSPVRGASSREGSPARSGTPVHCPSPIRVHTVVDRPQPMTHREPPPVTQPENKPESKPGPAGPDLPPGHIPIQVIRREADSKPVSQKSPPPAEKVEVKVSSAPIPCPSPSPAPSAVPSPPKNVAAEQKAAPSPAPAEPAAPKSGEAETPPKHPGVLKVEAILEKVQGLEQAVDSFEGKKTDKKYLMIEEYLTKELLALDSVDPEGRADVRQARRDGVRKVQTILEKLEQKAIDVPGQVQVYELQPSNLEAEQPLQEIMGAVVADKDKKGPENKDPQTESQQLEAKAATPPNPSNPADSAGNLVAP
UniProt O95817: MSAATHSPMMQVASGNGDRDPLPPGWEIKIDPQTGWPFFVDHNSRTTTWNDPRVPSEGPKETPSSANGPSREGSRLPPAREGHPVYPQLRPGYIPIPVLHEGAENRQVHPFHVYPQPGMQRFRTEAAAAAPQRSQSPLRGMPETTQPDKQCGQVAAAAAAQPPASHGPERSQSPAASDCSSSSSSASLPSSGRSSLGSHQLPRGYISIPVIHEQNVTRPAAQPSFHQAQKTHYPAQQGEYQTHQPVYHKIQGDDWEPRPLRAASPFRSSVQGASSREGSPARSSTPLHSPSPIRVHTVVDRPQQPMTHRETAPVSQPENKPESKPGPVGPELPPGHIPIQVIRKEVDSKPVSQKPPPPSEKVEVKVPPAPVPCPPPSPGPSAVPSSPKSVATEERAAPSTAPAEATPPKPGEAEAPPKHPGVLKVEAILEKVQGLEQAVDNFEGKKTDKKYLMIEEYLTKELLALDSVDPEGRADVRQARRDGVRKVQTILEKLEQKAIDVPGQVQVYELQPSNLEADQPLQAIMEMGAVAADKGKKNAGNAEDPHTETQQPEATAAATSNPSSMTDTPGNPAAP

Test [2] concerns the target T2, GST-large T antigen, full-length (pGEX2T-LT-(1–688)) (JC virus (JCV)) (UniProt P03072).
T2 sequence: T1 sequence
Nature of the test: pull-down; 2 µg GST fusion protein immobilized on Sepharose beads, incubated with 0.5 mg U-87MG whole-cell extract overnight at 4°C in 50 mM Tris-HCl pH 7.4, 150 mM NaCl, 0.5% Nonidet P-40; Western blot with anti-Bag3; only the target purified.

Results are given in words; binding and its absence hold for the method and conditions named. Binding seen in cells or lysates may run through a third protein. Some binding calls cover weakened binding; strength is not graded here. For some assays here: Where a sequence is shown, tags or fusion partners need not be part of it.

On to “Bag3, endogenous in BSB8 cells (from UniProt Q9JLV1 1-577)”, for which the binding entry in test [1] is “binds”.

With “Bag3, endogenous in U-87MG cells (from UniProt O95817 1-575)”, in test [2], the binding result is reported as “binds”.

The values are drawn from PMC3440322.
